Assay [1] addresses RAGA as used in the co-immunoprecipitation with the CD47 truncation mutants (UniProt Q7L523). Nature of the assay: co-IP; 3xflag-tagged CD47 full length and truncation mutants with RAGA; cells lysed in RIPA lysis buffer, primary antibody overnight at 4 °C, protein A/G agarose beads, immunoblot; which partner was precipitated is not told.
In assay [2] the target is RAGA (RRAGA, Ras-related GTP binding A), endogenous (human (endogenous; the cell line is not named, all lines cultured are human)) (UniProt Q7L523). Nature of the assay: co-IP; endogenous proteins; RAGA immunoprecipitation from cells lysed in RIPA lysis buffer, primary antibody overnight at 4 °C, protein A/G agarose beads 3 h, four washes with RIPA buffer, immunoblot.

Sequences of proteins named here, by UniProt entry; tags and fusion partners are left off. A change or cut given only in a name is not applied to a line headed by its entry. Residues count along the entry.
UniProt Q7L523: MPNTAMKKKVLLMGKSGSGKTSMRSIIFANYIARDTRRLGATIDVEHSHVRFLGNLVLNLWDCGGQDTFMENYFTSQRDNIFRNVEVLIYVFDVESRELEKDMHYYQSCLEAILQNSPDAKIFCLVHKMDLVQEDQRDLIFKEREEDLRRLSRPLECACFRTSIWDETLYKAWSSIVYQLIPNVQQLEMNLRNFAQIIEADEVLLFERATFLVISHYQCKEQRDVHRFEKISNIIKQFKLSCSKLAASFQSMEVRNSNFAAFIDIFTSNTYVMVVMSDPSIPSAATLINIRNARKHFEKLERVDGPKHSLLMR
UniProt Q08722, residues 19-323: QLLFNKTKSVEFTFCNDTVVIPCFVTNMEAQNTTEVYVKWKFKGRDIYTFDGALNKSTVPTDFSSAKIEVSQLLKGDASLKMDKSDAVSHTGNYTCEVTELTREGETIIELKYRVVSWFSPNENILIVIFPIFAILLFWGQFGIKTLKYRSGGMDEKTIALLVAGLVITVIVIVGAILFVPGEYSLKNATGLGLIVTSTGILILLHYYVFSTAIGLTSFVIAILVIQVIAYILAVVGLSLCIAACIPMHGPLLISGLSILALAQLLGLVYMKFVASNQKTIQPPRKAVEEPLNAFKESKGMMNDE

Results are given in words; binding and its absence hold for the method and conditions named. Binding seen in cells or lysates may run through a third protein. Some results given as binding are weak or reduced against the parent protein; the word gives no strength.

For “3xflag-tagged full length (FL) CD47 (from UniProt Q08722 19-323)”, in assay [1], the binding entry is “binds”.

As to “CD47 (cluster of differentiation 47), endogenous (from UniProt Q08722 19-323)”, the binding entry in assay [2] is recorded as “binds”.
